The list shows a part of the results. The main result of the screen is listed elsewhere. These columns were measured beside it and carry no call. Most of these compounds were active or inconclusive in the main read-out, so they are no random draw. The note in brackets gives the kind of curve behind each potency; many fits are weak.
Assay: qHTS Assay for Lipid Storage Modulators in Drosophila S3 Cells;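 on cell number change: cells counted by Cell Tracker Red CMTPX staining in the red channel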
Conditions: BODIPY lipid droplet fluorescence, 18-24 h; for cell number change: measured here: cell count max response, cells fed with added oleic acid
In short: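 Drosophila S3 cells got compounds at several concentrations plus oleic acid (400 uM solution). Laser-scanning cytometry with 488 nm excitation read lipid droplets at 500-530 nm and cells at 575-640 nm. Percent activity was relative to 20 uM Triacsin C.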

[1] = measured here: lipid fluorescence (Fed channel) AC50, cells fed with added oleic acid
[2] = measured here: cell number channel AC50, cells fed with added oleic acid

Structure (SMILES) | cell number change | AC50 [1] | AC50 [2]
COc1ccc(CNC(=O)C2CCN(C(=O)c3ccccc3)CC2)cc1 | 6.74% | 13 µM [rising, partial curve, poor fit] | 
O=C(O)C1CC(c2ccccc2F)=NO1 (centres undefined) | -37.6% | 20.6 µM [falling, single point] | 3.66 µM [falling, full curve]
Cc1ccn2cc(-c3cccc(NC(=O)c4cccs4)c3)nc2c1 | 46% | 29.1 µM [rising, single point] | 1.64 µM [rising, partial curve]
CC(C)c1ccc(CN(C(=O)C2COc3ccccc3O2)C2CCS(=O)(=O)C2)cc1 (centres undefined) | -24.1% | 6.51 µM [rising, single point] | 
O=[N+]([O-])c1cc([N+](=O)[O-])c(Oc2ccc(Cl)c3cccnc23)cc1NN1CCCCC1 | -27.8% |  | 
CC(=O)OCC(OC(C)=O)C(OC(C)=O)C(OC(C)=O)C(=O)Nc1ccccc1C (centres undefined) | 12.1% |  | 6.51 µM [rising, single point]
O=C(CCS(=O)(=O)CCN1CCOCC1)NCNC(=O)CCS(=O)(=O)CCN1CCOCC1 | 4.62% | 25.9 µM [rising, single point] | 
O=C(NC1=NCCS1)c1cc(-c2cccnc2)nc2ccccc12 |  |  | 0.146 µM [rising, full curve, poor fit]
Oc1ccc(C[C@H]2CNCCN2CCCCC2CCCCC2)cc1 | -51.5% |  | 20.6 µM [falling, single point]
CN(C)CCCNC(=S)N(CCCO)Cc1cc2cc3c(cc2[nH]c1=O)OCO3 | 20.4% | 3.26 µM [rising, partial curve] | 
C=CCn1c(=S)[nH]c2nc3c(cc2c1=O)CCCC3 |  | 0.58 µM [rising, single point] | 0.13 µM [rising, full curve, poor fit]
CCCCn1c(=O)c(CCC(=O)OCC(=O)Nc2cc(Cl)ccc2OC)nc2ccccc21 | 24.2% | 5.8 µM [rising, partial curve] | 
O=C(Nc1ccc(Cl)cc1)N1CCC(c2nc(-c3ccccc3Cl)no2)CC1 | -67.8% |  | 
Nc1ccccc1-c1nnc(SCc2ccccc2Cl)[nH]c1=O | 5.31% | 3.26 µM [rising, partial curve] | 
[O-][n+]1c2c(nn1-c1ccccc1)/C(=N/O)CCC2 | -3.15% | 3.26 µM [falling, single point] | 
CCc1ccc(C(C(=O)NC2CCCC2)N(Cc2cccnc2)C(=O)c2csnn2)cc1 (centres undefined) | -12.4% | 29.1 µM [rising, single point] | 
COc1cc(-c2nnn(CC#N)n2)ccc1OCc1ccccc1 | -26.1% | 0.058 µM [rising, full curve, poor fit] | 
COc1ccccc1CNC(=O)COC(=O)c1ccccc1SCC(=O)N1CCCC1 | 17.7% | 1.3 µM [rising, partial curve] | 
CCCC1=NN2C(=N)/C(=C\c3ccc(OCCOc4ccc(NC(C)=O)cc4)c(OC)c3)C(=O)N=C2S1 | -6.94% |  | 
Cc1nc2cc(C(F)(F)F)ccc2n1C1CCN(C(=O)N2CCOCC2)CC1 | -15.2% |  | 

Structure (SMILES) | cell number change | AC50 [1] | AC50 [2]
Cc1ccc(S(=O)(=O)N(CC(=O)NCc2ccncc2)Cc2ccccc2F)cc1 | 12.8% | 6.51 µM [rising, single point] | 
CC(=O)Nc1ccc(N2C(=O)CC(Sc3nc4ccccc4s3)C2=O)cc1 (centres undefined) | -52.8% | 29.1 µM [falling, single point] | 0.206 µM [falling, full curve]
CCCCNC(=O)CSc1nc2ccccc2c(=O)n1C1CCCC1 | -15.2% |  | 
C/C(=N\Nc1ccc(C)c(Cl)c1)c1ccncc1 | 15.7% | 0.731 µM [rising, full curve] | 
Cc1cc2cc(CCNC(=O)c3cccc([N+](=O)[O-])c3)c(=O)[nH]c2cc1C | 17.3% | 6.51 µM [rising, single point] | 
COc1ccc(NC(=O)Nc2ccc3c(c2)OCO3)c(C)c1 | -17.6% | 0.82 µM [falling, single point] | 
CN[C@@H]1[C@H](O)[C@H](NC)[C@H]2O[C@@]3(O)C(=O)C[C@@H](C)O[C@H]3O[C@@H]2[C@H]1O | 18.1% |  | 0.82 µM [rising, full curve, poor fit]
Cc1nc2ccccc2c(=O)n1NC(=O)c1cccnc1Cl | 32.3% |  | 
CCOc1ccc(OCC)c(NS(=O)(=O)c2ccc3c(c2)CCN3C(=O)C2CCC2)c1 | 46.9% |  | 10.3 µM [rising, single point]
N#Cc1cc([N+](=O)[O-])ccc1N1CCCC1 | 34.3% | 1.46 µM [rising, partial curve, poor fit] | 3.26 µM [rising, full curve, poor fit]
CC1CN(c2nc3ccccc3nc2C(C#N)C(=O)NC2CCCCC2)CC(C)O1 (centres undefined) |  | 6.51 µM [rising, single point] | 5.8 µM [rising, single point]
O=C(CSc1nnc2c(n1)[nH]c1ccccc12)N1CCCCC1 | -8.97% | 5.17 µM [falling, single point] | 
O=C1CCCC/C1=C\Nc1ccccc1C(=O)O | -22.5% | 1.46 µM [falling, full curve] | 
CN(C)c1cccc(C(=O)OCC(=O)Nc2ccccc2Cl)c1 | 56.7% |  | 
Cc1nnc(SCc2c(Cl)cccc2Cl)s1 | 176% | 0.58 µM [rising, single point] | 
COc1ccc(CCN2C(=O)CC(Cc3ccc(Br)cc3)C2=O)cc1OC (centres undefined) | -2.87% | 29.1 µM [rising, single point] | 
COc1ccc(/C=C/C(=O)NC(=S)Nc2ccc(S(N)(=O)=O)cc2)cc1OC | 14.6% |  | 0.231 µM [rising, partial curve]
CC1(C)CC(NC(=O)C2CCC(=O)N(C3CC3)C2)CC(C)(C)C1 (centres undefined) | 17.9% | 1.64 µM [falling, partial curve] | 
COc1ccc(OCCCC(=O)NCCc2nc3ccccc3[nH]2)cc1 | -40.8% |  | 2.06 µM [falling, single point]

Two records drawn at random from those above:
Structure (SMILES) | cell number change | AC50 [1] | AC50 [2]
Cc1cc2cc(CCNC(=O)c3cccc([N+](=O)[O-])c3)c(=O)[nH]c2cc1C | 17.3% | 6.51 µM [rising, single point] | 
O=C(O)C1CC(c2ccccc2F)=NO1 (centres undefined) | -37.6% | 20.6 µM [falling, single point] | 3.66 µM [falling, full curve]
